Active and inactive are the calls of the source. No rule for the calls is given here.
Target: Nuclear receptor coactivator 1 (Homo sapiens) (UniProt Q15788)
Test: inhibition of NCOA1 transcriptional coactivation in cells – cell-based, luciferase reporter, luminescence, dose response (AID 602235);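 also: cells transfected with pGL4.31 reporter plus pBIND-SRC1 vector; potency is for inhibitors that lower SRC1 reporter luminescence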
Conditions: cell-based SRC1 luciferase reporter

Protein sequences, listed by entry. Tags and fused reporters are not part of them. Lines headed by an entry give the natural chain unless they say otherwise; changes in a name come on top.
UniProt Q15788: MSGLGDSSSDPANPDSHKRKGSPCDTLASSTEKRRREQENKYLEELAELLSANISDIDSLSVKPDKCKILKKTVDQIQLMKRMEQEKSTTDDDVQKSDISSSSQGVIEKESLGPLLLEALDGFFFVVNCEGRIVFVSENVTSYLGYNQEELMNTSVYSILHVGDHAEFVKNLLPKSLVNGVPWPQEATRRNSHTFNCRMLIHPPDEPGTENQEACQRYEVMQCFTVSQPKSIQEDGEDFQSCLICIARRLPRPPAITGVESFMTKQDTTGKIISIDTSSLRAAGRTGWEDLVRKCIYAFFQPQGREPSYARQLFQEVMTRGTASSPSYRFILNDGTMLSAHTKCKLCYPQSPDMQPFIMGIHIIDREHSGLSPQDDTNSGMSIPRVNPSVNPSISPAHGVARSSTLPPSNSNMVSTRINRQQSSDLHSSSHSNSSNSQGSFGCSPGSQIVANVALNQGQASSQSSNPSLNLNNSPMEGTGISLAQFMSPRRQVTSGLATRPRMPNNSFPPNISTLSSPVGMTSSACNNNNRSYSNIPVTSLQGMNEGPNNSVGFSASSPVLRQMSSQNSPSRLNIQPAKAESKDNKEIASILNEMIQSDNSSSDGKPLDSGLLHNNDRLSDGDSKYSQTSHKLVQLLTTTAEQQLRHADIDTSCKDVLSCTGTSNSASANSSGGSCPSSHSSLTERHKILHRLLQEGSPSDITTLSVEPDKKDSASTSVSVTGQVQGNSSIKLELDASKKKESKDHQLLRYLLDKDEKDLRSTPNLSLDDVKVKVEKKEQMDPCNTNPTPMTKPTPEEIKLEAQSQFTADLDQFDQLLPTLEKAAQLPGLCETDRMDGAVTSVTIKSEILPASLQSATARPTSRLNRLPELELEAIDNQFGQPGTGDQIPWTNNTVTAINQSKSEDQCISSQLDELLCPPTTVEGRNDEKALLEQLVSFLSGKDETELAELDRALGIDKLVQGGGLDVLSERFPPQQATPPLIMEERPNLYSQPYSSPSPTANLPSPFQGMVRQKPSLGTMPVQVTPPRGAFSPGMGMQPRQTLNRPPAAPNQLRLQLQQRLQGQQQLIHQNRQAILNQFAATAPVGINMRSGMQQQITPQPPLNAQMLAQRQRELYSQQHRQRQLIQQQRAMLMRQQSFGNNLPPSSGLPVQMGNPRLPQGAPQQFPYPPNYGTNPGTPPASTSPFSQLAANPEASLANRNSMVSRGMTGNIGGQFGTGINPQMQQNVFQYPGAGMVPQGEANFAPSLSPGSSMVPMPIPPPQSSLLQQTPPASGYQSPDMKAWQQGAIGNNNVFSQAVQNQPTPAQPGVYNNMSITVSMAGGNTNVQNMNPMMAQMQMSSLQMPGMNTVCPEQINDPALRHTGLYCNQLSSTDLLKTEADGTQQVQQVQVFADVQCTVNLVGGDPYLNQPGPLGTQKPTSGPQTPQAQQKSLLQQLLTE

CN(C)C(=O)c1cccc(COc2ccc(N3C(N)=NC(N)=NC3(C)C)cc2Cl)c1
IC50: inactive: > 35.8 µM
